Test results taken from publication PMC5650337 (Oncotarget, 2017).
*1 amine or outer side, *2 acyl side, *3 side chain or, on linkers, in order; H or OH if unused. [ ]: non-standard residue; d: D form. βAla(3R-(1-naphthyl)) = O=C(C[C@@H](N[*:1])c1cccc2ccccc12)[*:2]

Test: general procedure: Fmoc solid-phase peptide synthesis; Chlorotrityl chloride (CTC) resin; HCTU; PyAOP
Settings: whole synthesis, HPLC

Substance | purity (crude or final not stated) [%]
Cyclo(1,10)GPR-(Anapa)FDEFWR* | 95
NH2-Arg-Anapa-Phe-Asp-OH* | > 95
cyclo(P[dP]R[βAla(3R-(1-naphthyl))]FDDF[βAla(3R-(1-naphthyl))]R) | > 95
